According to patent publication US8173668B1 (Alcon Research, Ltd., priority 2007, dated 2012):
Some entries share one result that the patent states for a list of compounds.

Test system: conscious ocular hypertensive cynomolgus monkey eyes
Experiment: IOP response in lasered (hypertensive) eyes of conscious cynomolgus monkeys, topical ocular
Format: in vivo
Conditions: 0.03-600 μg/eye
Protocol: Intraocular pressure (IOP) is determined with an Alcon Pneumatonometer (Alcon Laboratories, Inc., Fort Worth, Tex.) after light corneal anesthesia with 0.1% proparacaine. Right eyes are hypertensive as a result of laser trabeculoplasty. After a baseline IOP measurement, test compound is instilled in the right eyes only of 8-10 cynomolgus monkeys. Vehicle is instilled in the right eyes of 5-6 additional animals. Subsequent IOP measurements are taken at 1, 3, and 6 hours. IOP measurements are also taken on left eyes (normotensive and untreated) at each of these time points. The percent change in IOP from baseline is determined for each animal for every IOP measurement (Sharif et al. J. Ocular Pharmacol. Ther. 17: 305-317, 2001; May et al., J Pharmacol Exp Ther. 306: 301-309, 2003; Sharif et al. Invest. Ophthalmol. Vis. Res. 47: 4001-4010, 2006). Group mean and standard error of the mean (SEM) are calculated for each time point. […] In cases where the compound of invention has poor ocular bioavailability, the compound may need to be administered intracamerally or intravitreally in order to observe the IOP-lowering efficacy.
The IOP-lowering effect was slow to develop but significant IOP reduction was observed even 3 hours post-dosing with maximum ocular hypotension observed 16-48 hours post-dosing (Tables 6-8; FIGS. 3b-5).

Row | SMILES | time of maximum ocular hypotension post-dosing [h]
1 | Cc1cc(OCc2ccccn2)c2cccc(OCc3c(Cl)ccc(N(C)C(=O)CNC(=O)/C=C/c4ccc(/C=C/c5ccncc5)nc4)c3Cl)c2n1 [Compound 1] | 16 to 48
2 | CNC(=O)c1ccc(/C=C/C(=O)NCC(=O)N(C)c2ccc(Cl)c(COc3cccc4c(OCc5ccccn5)cc(C)nc34)c2Cl)cc1 [FR-190997] | 16 to 48
